# The list shows a part of the results. The data scatter; read single values as rough.
# Amino acid sequences for entries named in this document (tags omitted). A change or cut given only in a name is not applied to a line headed by its entry. Residues count along the entry.
# UniProt Q9H0V9: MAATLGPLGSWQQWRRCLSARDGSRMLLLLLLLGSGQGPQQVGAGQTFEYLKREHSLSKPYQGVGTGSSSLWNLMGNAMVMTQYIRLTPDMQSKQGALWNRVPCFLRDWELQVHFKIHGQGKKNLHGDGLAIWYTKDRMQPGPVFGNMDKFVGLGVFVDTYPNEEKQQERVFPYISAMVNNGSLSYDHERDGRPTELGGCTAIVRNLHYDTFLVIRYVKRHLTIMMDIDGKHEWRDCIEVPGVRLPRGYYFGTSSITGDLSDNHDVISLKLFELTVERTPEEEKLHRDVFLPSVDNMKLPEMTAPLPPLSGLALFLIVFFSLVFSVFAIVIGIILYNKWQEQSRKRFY
# UniProt Q15334: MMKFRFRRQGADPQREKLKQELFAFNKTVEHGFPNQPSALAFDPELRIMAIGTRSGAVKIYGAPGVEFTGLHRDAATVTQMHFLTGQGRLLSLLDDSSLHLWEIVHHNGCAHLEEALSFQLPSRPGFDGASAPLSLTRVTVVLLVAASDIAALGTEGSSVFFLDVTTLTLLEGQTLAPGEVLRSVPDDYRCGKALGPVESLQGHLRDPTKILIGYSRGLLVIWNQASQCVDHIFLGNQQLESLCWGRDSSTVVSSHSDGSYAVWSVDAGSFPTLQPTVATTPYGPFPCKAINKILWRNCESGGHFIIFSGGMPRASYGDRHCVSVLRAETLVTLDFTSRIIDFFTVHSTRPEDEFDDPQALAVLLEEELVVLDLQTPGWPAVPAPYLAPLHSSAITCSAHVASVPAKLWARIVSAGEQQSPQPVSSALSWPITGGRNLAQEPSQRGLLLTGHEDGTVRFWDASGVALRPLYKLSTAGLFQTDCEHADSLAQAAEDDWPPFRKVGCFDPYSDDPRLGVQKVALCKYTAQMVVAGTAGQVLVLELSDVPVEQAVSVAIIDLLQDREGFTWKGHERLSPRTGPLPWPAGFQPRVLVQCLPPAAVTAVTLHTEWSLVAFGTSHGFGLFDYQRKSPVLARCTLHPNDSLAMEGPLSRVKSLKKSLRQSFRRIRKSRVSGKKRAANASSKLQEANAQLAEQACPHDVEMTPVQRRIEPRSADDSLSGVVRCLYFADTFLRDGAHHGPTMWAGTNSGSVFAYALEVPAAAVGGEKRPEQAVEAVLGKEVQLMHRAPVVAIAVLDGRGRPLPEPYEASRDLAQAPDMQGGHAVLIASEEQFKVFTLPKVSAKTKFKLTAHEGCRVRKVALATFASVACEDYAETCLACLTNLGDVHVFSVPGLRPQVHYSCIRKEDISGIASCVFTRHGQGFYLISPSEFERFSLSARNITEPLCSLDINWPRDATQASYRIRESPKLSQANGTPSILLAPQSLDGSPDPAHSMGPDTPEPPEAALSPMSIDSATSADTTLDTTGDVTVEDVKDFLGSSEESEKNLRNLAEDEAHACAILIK
# UniProt P13796: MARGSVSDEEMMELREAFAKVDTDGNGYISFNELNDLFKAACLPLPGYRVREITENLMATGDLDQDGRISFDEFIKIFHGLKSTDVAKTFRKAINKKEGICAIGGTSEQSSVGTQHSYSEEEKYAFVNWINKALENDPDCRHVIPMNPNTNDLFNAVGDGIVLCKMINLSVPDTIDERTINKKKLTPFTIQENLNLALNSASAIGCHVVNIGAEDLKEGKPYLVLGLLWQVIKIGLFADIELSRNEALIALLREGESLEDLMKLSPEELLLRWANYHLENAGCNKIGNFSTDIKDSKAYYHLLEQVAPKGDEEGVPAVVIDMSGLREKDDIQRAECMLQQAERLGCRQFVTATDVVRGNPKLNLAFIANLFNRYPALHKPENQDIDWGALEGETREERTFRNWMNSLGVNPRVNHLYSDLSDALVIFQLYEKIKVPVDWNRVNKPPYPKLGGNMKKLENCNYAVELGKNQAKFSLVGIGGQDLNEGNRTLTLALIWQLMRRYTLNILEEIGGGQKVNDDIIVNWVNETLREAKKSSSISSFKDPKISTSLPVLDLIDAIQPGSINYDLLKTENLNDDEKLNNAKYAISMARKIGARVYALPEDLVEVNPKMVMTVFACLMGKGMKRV
# UniProt Q8N3X6: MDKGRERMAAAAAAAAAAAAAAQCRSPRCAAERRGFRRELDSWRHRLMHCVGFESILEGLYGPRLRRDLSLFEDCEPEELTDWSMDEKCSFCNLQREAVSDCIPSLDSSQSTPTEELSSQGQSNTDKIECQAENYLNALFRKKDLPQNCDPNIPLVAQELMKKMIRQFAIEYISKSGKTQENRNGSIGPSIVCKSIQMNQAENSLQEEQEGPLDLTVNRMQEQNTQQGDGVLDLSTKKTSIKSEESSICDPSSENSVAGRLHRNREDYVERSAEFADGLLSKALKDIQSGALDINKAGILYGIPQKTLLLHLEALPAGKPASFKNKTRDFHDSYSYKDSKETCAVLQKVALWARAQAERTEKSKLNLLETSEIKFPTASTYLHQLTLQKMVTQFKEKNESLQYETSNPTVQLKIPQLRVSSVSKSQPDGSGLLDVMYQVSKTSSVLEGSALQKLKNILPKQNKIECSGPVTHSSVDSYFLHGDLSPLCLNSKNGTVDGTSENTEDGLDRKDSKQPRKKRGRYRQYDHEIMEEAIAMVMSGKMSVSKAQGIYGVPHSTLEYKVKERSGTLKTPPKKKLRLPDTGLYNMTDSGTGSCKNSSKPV
# UniProt P48059: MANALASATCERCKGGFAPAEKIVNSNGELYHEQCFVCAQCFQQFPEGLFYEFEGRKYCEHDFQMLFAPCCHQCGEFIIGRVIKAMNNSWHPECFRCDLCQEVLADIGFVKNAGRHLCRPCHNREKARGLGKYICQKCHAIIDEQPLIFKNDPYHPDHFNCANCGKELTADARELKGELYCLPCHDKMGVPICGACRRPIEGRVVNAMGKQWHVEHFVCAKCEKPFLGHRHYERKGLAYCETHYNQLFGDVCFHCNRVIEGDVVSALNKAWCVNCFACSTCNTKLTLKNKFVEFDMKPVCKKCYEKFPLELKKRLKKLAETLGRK
# UniProt Q9NVR0: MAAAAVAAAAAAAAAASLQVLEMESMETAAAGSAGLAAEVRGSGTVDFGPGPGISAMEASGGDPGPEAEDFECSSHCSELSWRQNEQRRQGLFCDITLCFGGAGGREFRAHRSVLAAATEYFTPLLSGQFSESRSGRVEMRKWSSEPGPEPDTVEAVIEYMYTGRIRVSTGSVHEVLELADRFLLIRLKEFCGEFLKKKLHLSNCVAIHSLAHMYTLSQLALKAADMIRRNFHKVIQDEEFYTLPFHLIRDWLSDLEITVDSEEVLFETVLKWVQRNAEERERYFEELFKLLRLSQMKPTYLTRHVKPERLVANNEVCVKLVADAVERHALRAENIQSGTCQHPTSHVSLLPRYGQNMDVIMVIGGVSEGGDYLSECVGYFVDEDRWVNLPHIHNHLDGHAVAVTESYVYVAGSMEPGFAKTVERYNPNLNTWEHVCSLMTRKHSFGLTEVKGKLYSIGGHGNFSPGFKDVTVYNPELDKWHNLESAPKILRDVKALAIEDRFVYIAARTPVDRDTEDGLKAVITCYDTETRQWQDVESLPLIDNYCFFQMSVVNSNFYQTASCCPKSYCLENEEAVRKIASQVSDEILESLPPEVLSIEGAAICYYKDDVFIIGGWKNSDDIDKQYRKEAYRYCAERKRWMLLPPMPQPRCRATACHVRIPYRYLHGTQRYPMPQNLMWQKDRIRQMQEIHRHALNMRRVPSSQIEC
# UniProt Q9BW19: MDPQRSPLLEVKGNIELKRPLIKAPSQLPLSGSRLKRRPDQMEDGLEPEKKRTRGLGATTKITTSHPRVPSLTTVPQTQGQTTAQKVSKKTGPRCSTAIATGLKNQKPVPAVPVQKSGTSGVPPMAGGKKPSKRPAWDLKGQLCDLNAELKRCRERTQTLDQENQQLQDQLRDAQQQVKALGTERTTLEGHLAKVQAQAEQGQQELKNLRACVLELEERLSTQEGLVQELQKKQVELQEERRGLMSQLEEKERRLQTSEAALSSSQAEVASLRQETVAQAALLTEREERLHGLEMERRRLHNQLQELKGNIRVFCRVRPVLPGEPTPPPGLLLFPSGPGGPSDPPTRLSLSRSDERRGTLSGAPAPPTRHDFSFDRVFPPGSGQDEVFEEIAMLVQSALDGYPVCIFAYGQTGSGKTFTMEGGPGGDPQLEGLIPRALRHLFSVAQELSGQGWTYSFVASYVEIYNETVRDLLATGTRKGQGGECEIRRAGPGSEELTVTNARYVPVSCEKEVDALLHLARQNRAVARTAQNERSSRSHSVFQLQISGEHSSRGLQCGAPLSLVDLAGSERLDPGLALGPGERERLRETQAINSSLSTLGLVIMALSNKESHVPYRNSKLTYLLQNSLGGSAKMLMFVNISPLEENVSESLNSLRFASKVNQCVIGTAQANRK
# UniProt Q9UGP4: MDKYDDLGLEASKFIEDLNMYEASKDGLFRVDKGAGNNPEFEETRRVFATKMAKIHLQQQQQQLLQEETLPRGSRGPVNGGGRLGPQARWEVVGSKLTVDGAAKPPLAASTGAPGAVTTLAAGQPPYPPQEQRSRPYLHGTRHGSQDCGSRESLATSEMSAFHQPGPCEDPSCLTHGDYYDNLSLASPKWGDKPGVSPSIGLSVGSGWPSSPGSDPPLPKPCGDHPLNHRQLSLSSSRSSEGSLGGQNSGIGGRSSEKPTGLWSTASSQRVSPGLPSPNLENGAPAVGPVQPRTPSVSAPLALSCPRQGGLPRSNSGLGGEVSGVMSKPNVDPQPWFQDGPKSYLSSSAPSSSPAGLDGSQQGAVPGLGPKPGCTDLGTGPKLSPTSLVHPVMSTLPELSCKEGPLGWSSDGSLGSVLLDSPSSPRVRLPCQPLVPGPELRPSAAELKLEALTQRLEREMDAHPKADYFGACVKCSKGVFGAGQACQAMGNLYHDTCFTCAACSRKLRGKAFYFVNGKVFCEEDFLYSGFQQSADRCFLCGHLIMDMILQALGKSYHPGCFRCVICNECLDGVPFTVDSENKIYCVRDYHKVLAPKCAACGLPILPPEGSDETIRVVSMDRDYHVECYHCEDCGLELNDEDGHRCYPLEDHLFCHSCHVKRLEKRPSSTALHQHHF
# UniProt Q9Y2U8: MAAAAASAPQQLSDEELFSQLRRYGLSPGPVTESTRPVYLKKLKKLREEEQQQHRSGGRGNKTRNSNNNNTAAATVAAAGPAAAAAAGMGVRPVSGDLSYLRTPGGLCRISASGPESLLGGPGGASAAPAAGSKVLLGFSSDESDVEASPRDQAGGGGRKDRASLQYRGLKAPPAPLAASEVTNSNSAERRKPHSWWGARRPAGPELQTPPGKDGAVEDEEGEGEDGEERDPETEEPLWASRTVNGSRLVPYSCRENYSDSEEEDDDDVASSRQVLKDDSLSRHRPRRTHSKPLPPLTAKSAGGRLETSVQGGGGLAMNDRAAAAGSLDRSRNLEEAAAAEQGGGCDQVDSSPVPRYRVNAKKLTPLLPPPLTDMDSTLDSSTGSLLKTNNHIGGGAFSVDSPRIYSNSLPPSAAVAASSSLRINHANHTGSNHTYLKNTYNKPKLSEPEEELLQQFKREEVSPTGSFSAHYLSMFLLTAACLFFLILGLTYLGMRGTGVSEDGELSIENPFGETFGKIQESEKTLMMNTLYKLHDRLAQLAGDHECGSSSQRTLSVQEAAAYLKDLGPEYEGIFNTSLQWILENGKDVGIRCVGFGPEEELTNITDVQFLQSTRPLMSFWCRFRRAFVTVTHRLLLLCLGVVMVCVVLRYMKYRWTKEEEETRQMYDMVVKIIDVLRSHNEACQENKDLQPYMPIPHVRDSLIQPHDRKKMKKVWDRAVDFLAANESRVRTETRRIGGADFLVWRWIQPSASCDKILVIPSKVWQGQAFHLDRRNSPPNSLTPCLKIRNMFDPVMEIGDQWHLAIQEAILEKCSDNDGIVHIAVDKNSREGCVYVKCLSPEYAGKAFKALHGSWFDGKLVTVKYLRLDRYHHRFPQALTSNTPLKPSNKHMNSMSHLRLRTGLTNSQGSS
# UniProt Q9NSK0, 38-67: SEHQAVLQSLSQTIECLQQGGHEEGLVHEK
# Tests used:
# [1] = compound: ClCC(=O)N[C@@H]1CCCc2ccccc12; test: log2 mean competition ratio of IA-DTB cysteine labelling (DMSO/compound) (log2 ratio); higher = stronger cysteine engagement by compound; details: treatment time: 4 h, cell line lysate: HEK293T
# Experimental: (§1)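 IA-DTB competitive cysteine chemoproteomics in HEK293T RIPA lysate. Lysates were treated with compound 29 or 30 at 50 or 200 µM for 4 h, then IA-DTB (500 µM, 1 h), trypsin-digested, NeutrAvidin-enriched and analysed by diaPASEF. Competition ratio = intensity DMSO / intensity compound (n=4 treated, n=64 DMSO); binding: mean log2 CR ≥ 1 and p ≤ 0.05 plus QC filters. Target is the cysteine site.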
# [2] = compound: ClCC(=O)N[C@H]1CCCc2ccccc12; test: as above; details: treatment time: 4 h, cell line lysate: HEK293T
# Experimental: as §1
Target,log2 mean competition ratio ([1]; 50 µM),log2 mean competition ratio ([1]; 200 µM),log2 mean competition ratio ([2]; 50 µM),log2 mean competition ratio ([2]; 200 µM)
KPNA6 C357 (UniProt O60684),0.103,-0.254,0.443,-0.042
LAS1L C169 (UniProt Q9Y4W2),-0.178,0.0523,0.366,0.103
LMAN2L C200 (UniProt Q9H0V9),-0.307,0.301,-0.229,0.0982
LLGL1 C505 (UniProt Q15334),-0.0576,0.135,-0.157,0.189
LCP1 C42 (UniProt P13796),0.132,0.245,-0.152,0.16
LAS1L C256 (UniProt Q9Y4W2),-0.0916,0.0537,-0.0975,0.091
LCORL C193 (UniProt Q8N3X6),-0.0544,0.0547,0.309,0.0989
LIG3 C270 (UniProt P49916),0.303,-0.0284,0.168,0.0984
LIMS1 C94 (UniProt P48059),0.172,0.144,0.245,0.0235
LAP3 C462 (UniProt P28838),0.481,0.157,0.369,0.101
LLGL1 C947 (UniProt Q15334),0.142,0.0453,-0.143,0.0987
KLHL11 C318 (UniProt Q9NVR0),-0.0354,0.137,0.167,0.267
L3MBTL3 C682 (UniProt Q96JM7),0.0288,-0.18,-0.383,-0.173
KIFC1 C509 (UniProt Q9BW19),-0.00966,0.0619,0.0523,0.179
LIMD1 C560 (UniProt Q9UGP4),0.00352,-0.197,-0.04,-0.41
LLGL1 C855 (UniProt Q15334),0.00863,0.158,0.366,0.11
LRCH2 C730,0.259,0.202,-0.428,0.196
LEMD3 C754 (UniProt Q9Y2U8),0.0865,0.114,0.208,0.0921
LARS1 C573,0.316,0.482,0.38,0.295
LIG1 C719 (UniProt P18858),-0.112,-0.235,0.52,0.0605
KLC4 C53 (UniProt Q9NSK0),0.227,0.0351,-0.149,-0.315

# Taken from above.
# In log2 mean competition ratio ([1]; 50 µM), LAP3 C462 (UniProt P28838) reads 0.481
# In log2 mean competition ratio ([1]; 50 µM), LIMS1 C94 (UniProt P48059) reads 0.172
